{"source": "paper PMC12655529", "about": "“Serendipitous Hinge Modulation Hypothetically Reprograms Caerin 1.1-LC Antibacterial Mechanism and Gram-Negative Selectivity” (Pharmaceutics, 2025)", "key": {"Gram-negative bacteria": {"tested_on": "Gram-negative bacteria", "assay": "Geometric mean MIC and therapeutic index, Gram-negative", "assay_type": "cell-based", "conditions": "therapeutic index, calculated as HC10/GM MIC"}, "Gram-positive bacteria": {"tested_on": "Gram-positive bacteria", "assay": "Geometric mean MIC and therapeutic index, Gram-positive", "assay_type": "cell-based", "conditions": "therapeutic index, calculated as HC10/GM MIC"}}, "note": "Square brackets hold non-standard residues; d marks the D form. Ends that are not written are not given here. Peptide text beside a SMILES is read from it."}
{"compound": "CC[C@H](C)[C@H](NC(=O)[C@H](CCCCN)NC(=O)[C@@H]1CCCN1C(=O)[C@@H](CC(C)C)NC(=O)[C@H](C)NC(=O)[C@H](CCCCN)NC(=O)[C@@H]1CCCN1C(=O)[C@@H](NC(=O)[C@@H](NC(=O)[C@H](CC(C)C)NC(=O)[C@H](CCCCN)NC(=O)[C@H](CC(C)C)NC(=O)[C@H](CO)NC(=O)CNC(=O)[C@H](CC(C)C)NC(=O)[C@@H](NC(=O)[C@H](CO)NC(=O)[C@H](CC(C)C)NC(=O)[C@H](CC(C)C)NC(=O)CN)C(C)C)[C@@H](C)CC)C(C)C)C(=O)N[C@@H](C)C(=O)N[C@@H](CCC(=O)O)C(=O)N[C@@H](CCCCN)C(=O)N[C@@H](CC(C)C)C(N)=O", "note": "[Caerin 1.1-LC PKAL(D)P] (H-GLLSVLGSLKLIVPKA[dL]PKIAEKL-NH2; N-terminus assumed)", "values": [{"measurement": "TI Gram-Negative", "setting": "Gram-negative bacteria", "value": 8.91}, {"measurement": "TI Gram-Positive", "setting": "Gram-positive bacteria", "value": 0.68}]}
{"compound": "GLLSVLGSLKLIVPHIIPLIAEKL-NH2 [Caerin 1.1-LC PHIIP]", "values": [{"measurement": "TI Gram-Negative", "setting": "Gram-negative bacteria", "value": 0.15}, {"measurement": "TI Gram-Positive", "setting": "Gram-positive bacteria", "value": 0.3}]}
